The results in this text go back to paper PMC3791834.

Amino acid sequences for entries named in this document (tags omitted).
UniProt O95819: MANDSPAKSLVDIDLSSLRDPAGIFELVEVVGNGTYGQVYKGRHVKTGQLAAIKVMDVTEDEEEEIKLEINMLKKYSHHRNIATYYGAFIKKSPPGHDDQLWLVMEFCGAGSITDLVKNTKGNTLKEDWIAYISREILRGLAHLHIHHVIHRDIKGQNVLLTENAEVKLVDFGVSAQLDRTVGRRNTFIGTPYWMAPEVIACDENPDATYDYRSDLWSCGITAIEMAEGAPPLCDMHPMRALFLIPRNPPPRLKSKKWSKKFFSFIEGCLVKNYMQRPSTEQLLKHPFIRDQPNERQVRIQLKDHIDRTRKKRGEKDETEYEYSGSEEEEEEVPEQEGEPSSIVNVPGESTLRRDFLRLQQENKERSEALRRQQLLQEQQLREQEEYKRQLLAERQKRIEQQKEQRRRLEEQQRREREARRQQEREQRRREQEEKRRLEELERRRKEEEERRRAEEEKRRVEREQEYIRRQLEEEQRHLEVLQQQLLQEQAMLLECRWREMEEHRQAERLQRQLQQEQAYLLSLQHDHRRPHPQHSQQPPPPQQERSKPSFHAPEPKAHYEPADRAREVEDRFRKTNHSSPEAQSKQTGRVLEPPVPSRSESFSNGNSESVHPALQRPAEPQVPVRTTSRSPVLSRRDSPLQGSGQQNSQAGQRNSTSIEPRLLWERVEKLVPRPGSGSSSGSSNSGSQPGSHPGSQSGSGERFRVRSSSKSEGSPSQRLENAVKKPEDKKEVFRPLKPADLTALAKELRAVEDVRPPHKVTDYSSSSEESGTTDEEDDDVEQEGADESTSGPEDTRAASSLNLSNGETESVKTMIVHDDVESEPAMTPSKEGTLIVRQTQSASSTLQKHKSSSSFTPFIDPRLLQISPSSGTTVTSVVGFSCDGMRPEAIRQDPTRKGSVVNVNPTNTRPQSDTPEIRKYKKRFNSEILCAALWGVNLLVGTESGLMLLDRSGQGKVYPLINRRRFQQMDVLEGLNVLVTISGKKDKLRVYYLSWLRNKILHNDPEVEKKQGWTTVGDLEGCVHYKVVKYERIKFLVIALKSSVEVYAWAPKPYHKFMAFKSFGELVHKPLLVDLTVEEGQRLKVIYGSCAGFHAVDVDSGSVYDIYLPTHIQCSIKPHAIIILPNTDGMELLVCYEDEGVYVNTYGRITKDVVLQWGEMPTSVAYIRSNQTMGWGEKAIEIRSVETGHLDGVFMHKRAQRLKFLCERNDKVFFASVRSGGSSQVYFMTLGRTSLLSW
UniProt Q14289: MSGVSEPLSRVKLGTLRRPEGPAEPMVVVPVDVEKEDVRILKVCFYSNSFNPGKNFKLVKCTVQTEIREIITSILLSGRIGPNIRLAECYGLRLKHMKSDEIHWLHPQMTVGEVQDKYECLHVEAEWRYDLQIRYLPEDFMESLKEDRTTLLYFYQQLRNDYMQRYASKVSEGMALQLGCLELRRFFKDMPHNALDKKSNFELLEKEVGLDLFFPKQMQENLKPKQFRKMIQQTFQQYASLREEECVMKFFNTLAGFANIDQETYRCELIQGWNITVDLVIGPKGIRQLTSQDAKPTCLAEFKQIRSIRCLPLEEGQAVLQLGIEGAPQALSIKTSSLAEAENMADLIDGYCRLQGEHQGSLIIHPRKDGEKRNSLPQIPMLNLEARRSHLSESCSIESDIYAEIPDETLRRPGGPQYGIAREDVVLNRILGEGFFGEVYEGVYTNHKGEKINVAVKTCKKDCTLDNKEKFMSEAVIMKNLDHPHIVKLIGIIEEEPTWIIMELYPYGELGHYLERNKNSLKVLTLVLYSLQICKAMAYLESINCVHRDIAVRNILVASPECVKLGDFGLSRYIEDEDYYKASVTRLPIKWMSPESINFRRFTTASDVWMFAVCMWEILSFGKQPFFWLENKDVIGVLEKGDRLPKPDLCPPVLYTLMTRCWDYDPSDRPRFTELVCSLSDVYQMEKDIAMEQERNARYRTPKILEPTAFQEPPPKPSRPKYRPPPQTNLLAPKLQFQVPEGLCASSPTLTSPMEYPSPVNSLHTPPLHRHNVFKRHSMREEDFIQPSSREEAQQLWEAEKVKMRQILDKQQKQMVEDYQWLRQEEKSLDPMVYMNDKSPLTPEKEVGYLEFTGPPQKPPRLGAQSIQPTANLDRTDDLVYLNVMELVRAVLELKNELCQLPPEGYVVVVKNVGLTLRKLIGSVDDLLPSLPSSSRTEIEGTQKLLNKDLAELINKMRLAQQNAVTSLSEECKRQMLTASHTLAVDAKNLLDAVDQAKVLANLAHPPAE

The target in this assay is endogenous MAP4K4 of SF767 glioma cells (human (endogenous in SF767)) (UniProt O95819). The assay is described as follows: co-IP; endogenous proteins: SF767 glioma cells lysed and immunoprecipitated with anti-MAP4K4 antibody, immunoblot.

Results are given in words; binding and its absence hold for the method and conditions named. Binding seen in cells or lysates may run through a third protein. Some results given as binding are weak or reduced against the parent protein; the word gives no strength.

In the case of “endogenous Pyk2 of SF767 glioma cells (from UniProt Q14289 1-1009)”, the binding entry was “binds”.
